Measured values as given in US11059795B2, “Androgen receptor modulators and methods for their use” (ESSA Pharma, Inc., priority 2018, dated 2021).

Test system: LNCaP cells
Experiment: Cell proliferation/viability assay, LNCaP (Alamar blue)
Assay type: cell-based
Conditions: Homo sapiens, AR specific proliferation with 0.1 nM R1881, read-out: Cellular Proliferation/Viability IC50 (μM) LNCaP
Procedure: Cell proliferation/viability was measured in LNCaP and PC3 cells with Alamar blue, and proliferation was measured in LN-CaP95 cells with BrdU incorporation. In LNCaP cells, AR specific proliferation is calculated by measuring the difference between control cells treated with or without 0.1 nM R1881.

IC50: 0.35 µM
Compound: CNC(=O)c1ccc(N2C(=S)N(c3ccc(C#N)c(C(F)(F)F)c3)C(=O)C2(C)C)cc1F [Enzalutamide, enzalutamide, reference compound]
